From patent US20250163183A1
These are yes or no findings as the source states them, for the method shown. Some results given as binding are weak or reduced against the parent protein; the word gives no strength.

Chains of the proteins cited; added tags and fusions are not shown. Lines headed by an entry give the natural chain unless they say otherwise; changes in a name come on top.
UniProt P04070: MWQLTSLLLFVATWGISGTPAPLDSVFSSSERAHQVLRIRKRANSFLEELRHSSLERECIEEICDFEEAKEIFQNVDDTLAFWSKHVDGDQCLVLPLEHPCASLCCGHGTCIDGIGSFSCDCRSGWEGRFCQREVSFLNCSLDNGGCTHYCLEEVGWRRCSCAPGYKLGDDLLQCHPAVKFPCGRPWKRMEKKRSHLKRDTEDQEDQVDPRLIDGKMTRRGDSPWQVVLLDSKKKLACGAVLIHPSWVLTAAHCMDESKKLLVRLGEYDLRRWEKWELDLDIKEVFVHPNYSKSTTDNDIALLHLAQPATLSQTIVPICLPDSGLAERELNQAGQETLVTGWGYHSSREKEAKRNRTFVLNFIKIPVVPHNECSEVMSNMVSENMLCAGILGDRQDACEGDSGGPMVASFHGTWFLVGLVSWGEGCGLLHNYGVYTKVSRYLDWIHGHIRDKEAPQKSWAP

What was measured:
[1] = biological target: human activated protein C (APC) (human) (UniProt P04070); test: ELISA
[2] = biological target: human activated protein C (APC) (human) (UniProt P04070); test: ELISA screen, APC-coated wells, OD450, n=2 [Continued]

binding [1] | binding [2] | Binder
binds | binds | SR16983-R3-P2-D12 (VHH) VHH: QLQLVESGGGLVQAGGSLRLSCAASGSTFNFNIMGWYRQVPGKQRELVAVINSGGSADYTEDVKGRFTISRDNAKSIMYLQMNSLKPEDTAVYYCNAKKVEPTLFTTTYWGQGTQVTVSS
binds | binds | SR16983-R3-P5-C03 (VHH) VHH: QLQLVESGGGLVQAGGSLRLSCAASGTTFSFVYMGWYRQAPGNQRELVARLSSDGSTNYADSVKGRFLISGDNAKNTVYLQMNSLKPEDTARYYCFYNGHLNKWGQGTQVTVSS
binds | binds | SR16983-R3-P2-B02 (VHH) VHH: QLQLVESGGGLVQAGGSLRLSCAASGTTFSFVYMGWYRQAPGNQRDLVARISSDGSTNYADSVKGRFTISGDNAKNIVYLQMNSLKPEDTARYYCFYNGHLNKWGQGTQVTVSS
binds | binds | SR16983-R3-P2-G05 (VHH) VHH: QLQLVESGGGLVQTGGSLRLSCAASGTTFSFVYMGWYRQAPGNQRDLVARISSDGSTNYADSVKGRFTISGGNAKNTVYLQMNSLKPEDTARYYCFYNGHLNKWGQGTQVTVSS
binds |  | SR16983-R3-P5-A11 (VHH) VHH: QVQLVESGGGLVQAGGSLGLSCAASGTTFSFVYMGWYRQAPGNQRDLVARISSDGSTNYADSVKGRFTISGDNAKNTVYLQMNNLKPEDTARYYCFYNGHVNKWGQGTQVTVSS
binds | binds | SR16983-R2-P2-G11 (VHH) VHH: QVQLVESGGGLVQAGGSLRLSCAASGTTFSFNYMGWYRQAPGNQRDLVARISSGGITNYADSVKGRFTISGDNAKNVVYLQMNSLKPEDTARYYCFYNGHLNKWGQGTQVTVSS
binds | binds | SR16983-R3-P2-E09 (VHH) VHH: QLQLVESGGGLVQAGGSLRLSCAASGTTFSFNYMGWYRQAPGNQRDLVARISSGGSTNYADSVKGRFTISADNAKNTVYLQMNSLKPEDTARYTCFWNGYTNKWGQGTQVTVSS
binds | binds | SR16983-R3-P4-F06 (VHH) VHH: QLQLVESGGGLVQAGGSLRLSCEASRTTFSFNYMGWYRQAPGNQRDLVARISSGGITNYADSVKGRFTISGDNAKNTVYLQMNSLKPEDTARYYCFYNGHLNKWGQGTQVTVSS
binds | binds | SR16983-R2-P5-H07 (VHH) VHH: QVQLVESGGGLVQAGGSLRLSCAASGTTFSFVYMGWYRQAPGNQRELVARISSDGSTNYSDSVKGRFLISGANAKNTVYLQMNSLKPEDTARYYCFYNGHLNKWGQGTQVTVSS
binds | binds | SR16983-R4-P1-C07 (VHH) VHH: EVQLVESGGGVVQAGGSLRLSCVLSGNTFGDNVITWYRQPPGKQREFIAMITKSGSTRYADSVKGRFTMSRDTAKNTAFLQMSSLKVEDTAVYYCWTAIAGQGEYWGQGTQVTVSS
binds | binds | SR16983-R3P2F4 (VHH) VHH: QLQLVESGGGLVQAGGSLRLSCAASGRIFGTYVMGWFRQAPGKEREFVAAVSRSTGSTYADSVKGRFTISRDDAKNMLYLQMNNLRPEDTAIYYCATRASINYNYANWPYWGQGTQVTVSS
binds | binds | SR16983-R3-P3-F01 (VHH) VHH: EVQLVESGGGLVQAGDSLRLSCARSGLTASTYAMAWFRQAPGKEREFVSVIDWKGDTTYANSVKGRFTISRDNGKNTVYLQMNSLQPEDTALYYCAARGSPAYVARLYAYWGRGTQVTVSS
binds | binds | SR16983-R3-P4-H10 (VHH) VHH: QVQLVESGGGLVQAGGSLRLSCAASGLTSSTYVMAWFRQAPGKEREFVSVIDSRGDTTYANSVKGRFTTSRDFGKNTVYLQMNSLQPEDTALYYCAARASPAYVARLYAYWGRGTQVTVSS
binds | binds | SR16983-R3-P3-A12 (VHH) VHH: QLQLVESGGGLVQPGGSLRLSCAVSGFTLDDYAIGWFRQAPGKEREGVSSIATSDGSTYYADSVKGRFTISSDNAKNTVYLQMNSLKPEDTAVYYCARGGLLLPRPELYEYWGQGTQVTVSS
binds | binds | SR16983-R3-P3-G05 (VHH) VHH: QLQLVESGGGLVQAGGSLRLSCAASGFTLDDYAIGWFRQAPGKEREGVSCIASSDGSTYYADSVKGRFTISTDNAKNTVYLQMNSLKPEDTAVYYCARGGLLLPKPELFDSWGQGTQVTVSS
binds | binds | SR16983-R3-P4-A05 (VHH) VHH: QLQLVESGGGLVQAGGSLRLSCAASGFTLDDYAIGWFRQAPGKEREGVSCIATSDGSTYYADSVKGRFTISSDAAKNTVYLQMDSLKPEDTAVYYCARGGLLLPKPELFDGWGQGTQVTVST

binding [1] | binding [2] | Binder
binds | binds | SR16983-R3P2H05 (VHH) VHH: QLQLVESGGGLVQPGGSLRLACAASGFSFDDYAIGWFRQAPGKEREGVSCITSDGSTYYADSVKGRFTISSDYAKNTVHLQMNSLKPEDTAVYYCARGGLLLPKPELFDDWGQGTQVTVSS
binds | binds | SR16983-R3P2G08 (VHH) VHH: QLQLVESGGGLVQAGGSMRLSCTASGSTVRVTAGGWYRQAPGNERELVADIDNGGSTTYADSVKGRFTISRDNAKNAVDLQMNSLKPEDTAVYRCFVIAIPDSAPRPRAYWGQGTQVTVSS
binds | binds | SR16983-R2-P4-G06 (VHH) VHH: EVQLVESGGGLVQAGGSLRLSCTTSGSTFSITAGGWYRQAPGKQRELVADIANDGSTTYADSVKGRFTISRDNAKNTVELQMSSLKLEDTAVYLCFVVGISDSTPRPRAYWGQGTQVTVSS
binds | binds | SR16983-R2-P4-G01 (VHH) VHH: QLQLVESGGGLVQAGGSLRLSCAASGRTVGSYVMGWFRQAPGKEREFLAANSRSTGNTVYADSVKGRFTISRDDAKNTLYLQMNSLKPEDTAVYYCATRASINYNYANWPYWGQGTQVNVSS
binds | binds | SR16983-R3P2G9 (VHH) VHH: QVQLVESGGGLVQPGGSLRLSCAASGRTFGSYVMGWFRQAPGKEREFVAAASRSTGNTVYPDSVKGRFTISRDDAKNTLYLQMNSLKPEDTAVYYCAARASINYNYANWPYWGQGTQVTVSS
binds | binds | SR16983-R3P2D09 (VHH) VHH: QVQLVESGGGLVQAGGSLRLSCAASGRTVGSYAMGWFRQAPGKEREFLAAFSRSTGNTVYADSVKGRFTISRDDAKNTLYLQMNSLKPEDTAVYYCAARASINYNYANWPYWGQGTQVTVSS
binds | binds | SR16983-R3-P3-G03 (VHH) VHH: QVQLVESGGGLVQAGGSLRLSCAASGRTVGSYVMGWFRQAPGKERELLAAFSRSTGNTVYADSVKGRFTISRDDAKNTLYLQMNSLKPEDTAVYYCAARASINYNYANWPYWGQGTQVTVSS
binds | binds | SR16983-R2-P4-B05 (VHH) VHH: QVQLVESGGGLVQAGGSLRLSCAASGRVFGTYVMGWFRQAPGKEREFVAAFSRSTGHITYADSVKGRFTISRDDAKNTLYLQMNSLKPEDTAVYYCATRASINYNYANWPYWGQGTQVTVSS
binds | binds | SR16983-R3-P4-G01 (VHH) VHH: QLQLVESGGGLVQAGGSLRLSCAASGRTFVGSYVMGWFRQAPGKEREFVAASSRSTGNTVYLDSVKGRFTISRDDAKNMLYLQMNSLKPEDTAVYYCATRASINYNYANWPYWGQGTQVTVSS
binds | binds | SR16983-R2-P2-A08 (VHH) VHH: QVQLVESGGGVVQAGGSLRLSCAASGLTSSTYVMAWFRQAPGKEREFVSVIDSRGDTTYAKSVKGRFSISRDNGKNAVYLQMNSLQPEDTALYYCAARASASYVARMYAYWGRGTQVTVSS
binds | binds | SR16983-R4-P1-A12 (VHH) VHH: QLQLVESGGGLVQAGGSLRLSCAASGTTSSLNLMGWYRQAPGKKRESVAHMTSDGDTDYVDSVKGRFTISRDNSKNTVYLQMNNVKPEDTAVYYCYANPFLGSWSNYWGQGTQVTVSS
binds |  | SR16983-R3-P2-A08 (VHH) VHH: QVQLVESGGGLVQAGGSLRLSCAASGRTSSNYNMGWFRQAPGKEREFVAAIPWTGSTTYYADPVKGRFTISRDSTKNTGDLQMNSLKPEDTAVYYCALGRRENYYALLQQRGYDYWGQGTQVTVSS
binds | binds | SR16983-R2-P4-F09 (VHH) VHH: QVQLVESGGGLVQAGGSLRLSCAASGFTFDDYAIGWFRQAPGKEREGIACRSTDGSTYYADSVEGRFTISSDNAKRTVYLQMNSLKPGDTAVYYCAADLMGVHRRCSGYLNLEYGMDYWAKGTLVTVSS
binds | binds | SR16983-R3P2A07 (VHH) VHH: QVQLVESGGRLVQAGGSLRLSCAASGRTSSNYAMGWFRQAPGKERRFVAGISRDGADTSYADSVKGRFTILRDRSKNTADLQMNSLKPEDTAIYYCAAARGIYGEISRYTGDYESWGQGTQVTVSS
binds | binds | SR16983-R3-P3-C06 (VHH) VHH: QLQLVESGGGLVQPGGSLRLSCAASGFTFSTKWMYWVRQGPGKGLEWVSTIDASGGSTYYADSVKGRFTISRDNTEKKVYLQMNSLESADTAVYYCARSAGGQFRGRGTQVTVSS
